# Laboratory results taken from PMC6283417, “The structure of the RbBP5 β-propeller domain reveals a surface with potential nucleic acid binding sites”.
# Protein sequences, listed by entry. Tags and fused reporters are not part of them. Residues count along the entry.
# UniProt Q8BX09, 1-340: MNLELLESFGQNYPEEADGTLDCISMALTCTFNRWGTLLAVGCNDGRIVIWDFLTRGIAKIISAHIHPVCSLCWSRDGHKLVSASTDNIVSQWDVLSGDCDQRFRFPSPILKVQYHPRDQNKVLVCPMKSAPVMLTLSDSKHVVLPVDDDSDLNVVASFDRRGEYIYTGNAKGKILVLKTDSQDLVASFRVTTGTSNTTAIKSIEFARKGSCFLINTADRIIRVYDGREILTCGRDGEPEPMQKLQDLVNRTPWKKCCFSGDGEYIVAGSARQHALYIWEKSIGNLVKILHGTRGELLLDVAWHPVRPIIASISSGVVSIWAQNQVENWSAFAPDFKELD
# UniProt Q8BX09, 1-340 R34E: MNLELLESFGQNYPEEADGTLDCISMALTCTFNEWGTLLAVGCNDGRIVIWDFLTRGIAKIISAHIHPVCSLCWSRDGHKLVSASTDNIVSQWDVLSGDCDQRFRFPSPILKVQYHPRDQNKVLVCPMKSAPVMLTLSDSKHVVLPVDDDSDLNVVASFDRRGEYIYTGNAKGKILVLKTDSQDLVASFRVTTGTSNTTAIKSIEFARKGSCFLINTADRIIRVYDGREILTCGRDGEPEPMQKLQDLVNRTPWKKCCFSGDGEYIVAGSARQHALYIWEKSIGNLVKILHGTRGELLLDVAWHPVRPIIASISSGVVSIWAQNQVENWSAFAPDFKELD
# UniProt Q8BX09, 1-340 R220E: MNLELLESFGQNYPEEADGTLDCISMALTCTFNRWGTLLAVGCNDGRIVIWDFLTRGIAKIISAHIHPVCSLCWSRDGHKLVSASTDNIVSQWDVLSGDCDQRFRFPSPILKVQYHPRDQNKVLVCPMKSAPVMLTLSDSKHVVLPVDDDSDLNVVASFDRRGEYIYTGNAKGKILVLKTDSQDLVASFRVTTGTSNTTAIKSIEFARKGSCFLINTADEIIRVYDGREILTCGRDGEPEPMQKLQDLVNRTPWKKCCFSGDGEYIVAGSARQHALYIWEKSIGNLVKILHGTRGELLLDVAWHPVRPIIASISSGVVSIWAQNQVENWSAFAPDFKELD
# UniProt Q8BX09, 1-340 R162E: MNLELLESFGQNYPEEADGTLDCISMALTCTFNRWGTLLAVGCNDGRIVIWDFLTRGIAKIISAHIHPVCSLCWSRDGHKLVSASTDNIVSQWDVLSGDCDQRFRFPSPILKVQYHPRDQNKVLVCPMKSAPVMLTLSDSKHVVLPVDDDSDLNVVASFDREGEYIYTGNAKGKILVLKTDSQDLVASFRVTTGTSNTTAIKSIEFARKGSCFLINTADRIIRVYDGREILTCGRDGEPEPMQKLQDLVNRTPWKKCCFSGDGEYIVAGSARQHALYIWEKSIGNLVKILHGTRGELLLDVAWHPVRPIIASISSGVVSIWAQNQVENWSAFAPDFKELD
# UniProt Q8BX09, 1-340 R272E: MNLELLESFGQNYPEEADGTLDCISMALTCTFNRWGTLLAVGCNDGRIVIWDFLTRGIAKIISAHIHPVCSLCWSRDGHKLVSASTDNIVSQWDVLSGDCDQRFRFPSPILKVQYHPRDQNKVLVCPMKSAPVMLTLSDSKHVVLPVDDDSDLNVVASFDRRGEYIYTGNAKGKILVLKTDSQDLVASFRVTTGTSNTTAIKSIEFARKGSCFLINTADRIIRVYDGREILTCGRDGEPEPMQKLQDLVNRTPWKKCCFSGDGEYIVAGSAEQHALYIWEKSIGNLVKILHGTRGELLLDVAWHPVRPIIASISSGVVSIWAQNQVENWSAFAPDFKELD
# The exact form of at least one protein or probe is not confirmed.
# Key:
# [1] = target: RbBP5 beta-propeller (1-340) wild type (mouse) (UniProt Q8BX09); test: fluorescence anisotropy; conditions: Anisotropy: 50 mM Tris pH 7.4, 150 mM NaCl, 0.5 mM DTT, 20 C, recombinant protein, residues 1-340, protein details: 6xHis-SUMO removed by 3C protease
# [2] = target: RbBP5 beta-propeller (1-340) wild type (mouse) (UniProt Q8BX09); test: NMR Arg side-chain HSQC; conditions: 4:1 NA:protein, recombinant protein, residues 1-340, protein details: 6xHis-SUMO removed by 3C protease
# [3] = target: RbBP5 (1-340) R34E (mouse) (UniProt Q8BX09); test: fluorescence anisotropy; conditions: Anisotropy: 50 mM Tris pH 7.4, 150 mM NaCl, 0.5 mM DTT, 20 C; recombinant protein; residues 1-340; protein details: 6xHis-SUMO removed by 3C protease
# [4] = target: RbBP5 (1-340) R220E (mouse) (UniProt Q8BX09); test: fluorescence anisotropy; conditions: Anisotropy: 50 mM Tris pH 7.4, 150 mM NaCl, 0.5 mM DTT, 20 C; recombinant protein; residues 1-340; protein details: 6xHis-SUMO removed by 3C protease
# [5] = target: RbBP5 (1-340) R162E (mouse) (UniProt Q8BX09); test: fluorescence anisotropy; conditions: Anisotropy: 50 mM Tris pH 7.4, 150 mM NaCl, 0.5 mM DTT, 20 C; recombinant protein; residues 1-340; protein details: 6xHis-SUMO removed by 3C protease
# [6] = target: RbBP5 (1-340) R272E (mouse) (UniProt Q8BX09); test: fluorescence anisotropy; conditions: Anisotropy: 50 mM Tris pH 7.4, 150 mM NaCl, 0.5 mM DTT, 20 C; recombinant protein; residues 1-340; protein details: 6xHis-SUMO removed by 3C protease
sequence,measurement,setting,value
GCATAGGTTCGATC (double strand) [14-mer dsDNA-6FAM],Kd,[1],29.7 µM
GCATAGGTTCGATC (double strand) [14-mer dsDNA (NMR)],binding result,[2]; weakest effect,binds
GCAUAGGUUCGAUC / GAUCGAACCUAUGC [14-mer dsRNA-6FAM],Kd,[3],32.3 µM
same,Kd,[4],26.1 µM
same,Kd,[1],13.2 µM
same,Kd,[1]; mutant series wild-type control,15.7 µM
same,Kd,[5],37.2 µM
same,Kd,[6],16.4 µM
GCAUAGGUUCGAUC / GAUCGAACCUAUGC [14-mer dsRNA (NMR)],binding result,[2]; strongest effect,binds
